Laboratory results from paper PMC6368580.
These are yes or no findings as the source states them, for the method shown. Binding seen in cells or lysates may run through a third protein.

Sequences of proteins named here, by UniProt entry; tags and fusion partners are left off. A change or cut given only in a name is not applied to a line headed by its entry.
UniProt Q96RK0: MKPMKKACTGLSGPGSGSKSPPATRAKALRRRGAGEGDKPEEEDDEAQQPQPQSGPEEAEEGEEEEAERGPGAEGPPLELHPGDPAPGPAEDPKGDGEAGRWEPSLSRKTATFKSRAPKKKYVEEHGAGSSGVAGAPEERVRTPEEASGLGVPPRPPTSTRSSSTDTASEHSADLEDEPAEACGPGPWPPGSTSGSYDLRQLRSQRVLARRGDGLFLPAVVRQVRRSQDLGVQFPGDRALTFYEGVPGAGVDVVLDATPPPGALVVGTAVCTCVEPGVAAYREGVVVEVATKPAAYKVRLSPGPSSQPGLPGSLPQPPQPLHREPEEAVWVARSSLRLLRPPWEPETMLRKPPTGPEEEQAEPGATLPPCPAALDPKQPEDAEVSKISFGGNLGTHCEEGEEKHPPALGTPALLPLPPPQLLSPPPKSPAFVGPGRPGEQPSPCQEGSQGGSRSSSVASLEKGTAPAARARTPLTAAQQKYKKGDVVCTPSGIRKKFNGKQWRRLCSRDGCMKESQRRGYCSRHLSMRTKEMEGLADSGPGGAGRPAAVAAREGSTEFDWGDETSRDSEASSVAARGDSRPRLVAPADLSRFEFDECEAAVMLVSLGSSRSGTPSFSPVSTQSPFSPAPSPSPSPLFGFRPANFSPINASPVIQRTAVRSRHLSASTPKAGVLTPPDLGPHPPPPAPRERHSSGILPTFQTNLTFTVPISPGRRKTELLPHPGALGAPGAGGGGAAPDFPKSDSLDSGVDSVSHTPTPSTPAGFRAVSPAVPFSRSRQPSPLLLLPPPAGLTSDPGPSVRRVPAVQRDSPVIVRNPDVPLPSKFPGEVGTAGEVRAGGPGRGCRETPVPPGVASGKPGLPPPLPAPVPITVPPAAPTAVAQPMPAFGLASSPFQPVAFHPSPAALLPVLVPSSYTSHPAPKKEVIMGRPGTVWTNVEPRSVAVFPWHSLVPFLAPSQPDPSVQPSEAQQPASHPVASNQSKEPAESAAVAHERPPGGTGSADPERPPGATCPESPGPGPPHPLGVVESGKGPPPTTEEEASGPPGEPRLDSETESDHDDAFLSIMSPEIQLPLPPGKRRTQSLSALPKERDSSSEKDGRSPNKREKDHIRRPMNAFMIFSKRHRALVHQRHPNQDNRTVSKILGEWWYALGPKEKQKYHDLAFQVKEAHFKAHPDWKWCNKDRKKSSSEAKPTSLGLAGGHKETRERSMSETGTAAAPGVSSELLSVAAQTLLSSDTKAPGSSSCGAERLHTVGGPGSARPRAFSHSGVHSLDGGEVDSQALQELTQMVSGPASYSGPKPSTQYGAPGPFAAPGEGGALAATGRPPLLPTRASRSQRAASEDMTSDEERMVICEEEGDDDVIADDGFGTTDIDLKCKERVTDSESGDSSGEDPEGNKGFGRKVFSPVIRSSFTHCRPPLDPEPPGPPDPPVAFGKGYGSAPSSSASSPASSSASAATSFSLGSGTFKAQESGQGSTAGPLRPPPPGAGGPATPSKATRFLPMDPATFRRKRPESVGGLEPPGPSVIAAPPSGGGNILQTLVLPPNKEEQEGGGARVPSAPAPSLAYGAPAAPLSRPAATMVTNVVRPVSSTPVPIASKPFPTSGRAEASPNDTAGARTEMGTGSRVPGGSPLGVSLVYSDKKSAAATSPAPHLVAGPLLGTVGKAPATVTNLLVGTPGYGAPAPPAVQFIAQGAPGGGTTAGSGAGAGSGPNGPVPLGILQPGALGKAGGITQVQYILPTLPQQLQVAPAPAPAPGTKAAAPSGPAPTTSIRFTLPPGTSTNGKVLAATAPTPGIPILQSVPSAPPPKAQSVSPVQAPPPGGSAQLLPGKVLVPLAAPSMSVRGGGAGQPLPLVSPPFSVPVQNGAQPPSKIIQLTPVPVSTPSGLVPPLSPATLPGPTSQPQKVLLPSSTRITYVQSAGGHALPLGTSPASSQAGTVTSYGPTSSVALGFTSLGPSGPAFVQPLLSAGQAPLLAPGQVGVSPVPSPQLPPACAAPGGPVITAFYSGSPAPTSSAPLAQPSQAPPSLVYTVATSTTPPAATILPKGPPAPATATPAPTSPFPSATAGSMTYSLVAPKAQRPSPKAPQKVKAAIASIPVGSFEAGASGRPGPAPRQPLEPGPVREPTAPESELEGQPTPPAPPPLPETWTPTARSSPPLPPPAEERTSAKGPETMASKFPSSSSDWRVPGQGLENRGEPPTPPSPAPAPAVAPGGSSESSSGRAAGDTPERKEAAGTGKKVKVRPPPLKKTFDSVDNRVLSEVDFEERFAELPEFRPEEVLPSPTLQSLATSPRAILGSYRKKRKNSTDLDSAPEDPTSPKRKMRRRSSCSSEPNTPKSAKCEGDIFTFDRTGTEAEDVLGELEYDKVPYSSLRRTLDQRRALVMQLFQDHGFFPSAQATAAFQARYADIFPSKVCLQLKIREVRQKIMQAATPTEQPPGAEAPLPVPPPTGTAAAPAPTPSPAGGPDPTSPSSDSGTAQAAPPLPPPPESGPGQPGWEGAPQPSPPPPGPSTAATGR

Target: HA-CIC(ΔEBI), CIC with the ERK-binding interface deleted (UniProt Q96RK0)
Experiment: co-IP; U87 cells transfected with indicated plasmids, IP with anti-HA antibody; EBC lysis buffer, NETN washes

binding: no binding
B1: PJA1 in transfected U87 cells (enzyme, UniProt Q8NG27 1-643)
chain: MGQESSKPVWPNPTGGYQSNTGRRYGRRHAYVSFRPPTSQRERIASQRKTNSEVPMHRSAPSQTTKRSRSPFSTTRRSWDDSESSGTNLNIDNEDYSRYPPREYRASGSRRGMAYGHIDSYGADDSEEEGAGPVERPPVRGKTGKFKDDKLYDPEKGARSLAGPPPHFSSFSRDVREERDKLDPVPAARCSASRADFLPQSSVASQSSSEGKLATKGDSSERERREQNLPARPSRAPVSICGGGENTSKSAEEPVVRPKIRNLASPNCVKPKIFFDTDDDDDMPHSTSRWRDTANDNEGHSDGLARRGRGESSSGYPEPKYPEDKREARSDQVKPEKVPRRRRTMADPDFWTHSDDYYKYCDEDSDSDKEWIAALRRKYRSREQTLSSSGESWETLPGKEEREPPQAKVSASTGTSPGPGASASAGAGAGASAGSNGSNYLEEVREPSLQEEQASLEEGEIPWLQYHENDSSSEGDNDSGHELMQPGVFMLDGNNNLEDDSSVSEDLEVDWSLFDGFADGLGVAEAISYVDPQFLTYMALEERLAQAMETALAHLESLAVDVEVANPPASKESIDALPEILVTEDHGAVGQEMCCPICCSEYVKGEVATELPCHHYFHKPCVSIWLQKSGTCPVCRCMFPPPL
